For one compound, inhibition results are on record in PubChem BioAssay AID463181 (University of Pittsburgh Molecular Library Screening Center, 2010).

This is one part of the list. The main result of the screen is listed elsewhere. These columns were measured beside it and carry no call.

The term inhibition denotes how much of the control response was suppressed.

A short description of this assay: inhibitors of zVAD-triggered L929 necroptosis, potency, dose response, L929 cells, duplicate IC50 (AID 463181). Conditions: L929 zVAD necroptosis rescue, ATP luminescence, 24 h; inhibition of cell death; at 50 µM; stronger effect = higher value.

`COC(=O)N1C(c2ccccc2)C1c1ccccc1` (stereo unspecified) came in with an inhibition of 39.4%.
